Data reported in PMC3990687.
No constants are given. Whether binding was seen depends on the method and setting. Binding seen in cells or lysates may run through a third protein. Some entries that bind do so weakly or less than the wild type.

Sequences of proteins named here, by UniProt entry; tags and fusion partners are left off.
UniProt Q9UBK9: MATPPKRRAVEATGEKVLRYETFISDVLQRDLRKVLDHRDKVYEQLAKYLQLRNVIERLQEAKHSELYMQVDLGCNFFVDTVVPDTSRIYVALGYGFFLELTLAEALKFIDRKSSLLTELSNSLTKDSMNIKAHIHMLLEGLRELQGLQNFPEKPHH
UniProt P15976: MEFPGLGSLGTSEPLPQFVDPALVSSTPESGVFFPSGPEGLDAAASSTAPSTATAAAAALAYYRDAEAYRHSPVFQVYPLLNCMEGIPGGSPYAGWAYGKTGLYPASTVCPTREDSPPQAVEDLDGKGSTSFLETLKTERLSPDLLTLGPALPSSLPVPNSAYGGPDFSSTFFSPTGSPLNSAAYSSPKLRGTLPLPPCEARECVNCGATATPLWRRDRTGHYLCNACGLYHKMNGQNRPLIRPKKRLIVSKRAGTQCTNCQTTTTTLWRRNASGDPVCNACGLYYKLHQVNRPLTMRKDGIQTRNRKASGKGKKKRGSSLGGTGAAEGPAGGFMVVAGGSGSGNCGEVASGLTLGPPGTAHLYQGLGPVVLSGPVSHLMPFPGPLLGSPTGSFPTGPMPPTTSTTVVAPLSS
UniProt Q92908: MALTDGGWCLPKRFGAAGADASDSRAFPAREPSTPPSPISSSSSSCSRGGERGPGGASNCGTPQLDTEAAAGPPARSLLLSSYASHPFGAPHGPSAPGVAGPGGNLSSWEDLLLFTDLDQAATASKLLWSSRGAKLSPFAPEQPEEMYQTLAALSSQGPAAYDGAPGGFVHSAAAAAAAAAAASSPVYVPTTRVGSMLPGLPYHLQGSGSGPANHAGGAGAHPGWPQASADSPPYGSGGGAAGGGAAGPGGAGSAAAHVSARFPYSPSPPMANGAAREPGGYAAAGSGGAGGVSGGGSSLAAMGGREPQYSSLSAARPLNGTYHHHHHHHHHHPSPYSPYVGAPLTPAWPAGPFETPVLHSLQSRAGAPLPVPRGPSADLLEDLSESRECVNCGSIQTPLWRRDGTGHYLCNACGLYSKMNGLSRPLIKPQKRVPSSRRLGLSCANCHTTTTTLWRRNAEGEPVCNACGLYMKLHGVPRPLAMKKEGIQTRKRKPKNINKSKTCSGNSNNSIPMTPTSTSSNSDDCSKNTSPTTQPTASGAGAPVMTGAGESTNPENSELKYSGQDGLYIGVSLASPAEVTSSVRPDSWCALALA
UniProt P42582: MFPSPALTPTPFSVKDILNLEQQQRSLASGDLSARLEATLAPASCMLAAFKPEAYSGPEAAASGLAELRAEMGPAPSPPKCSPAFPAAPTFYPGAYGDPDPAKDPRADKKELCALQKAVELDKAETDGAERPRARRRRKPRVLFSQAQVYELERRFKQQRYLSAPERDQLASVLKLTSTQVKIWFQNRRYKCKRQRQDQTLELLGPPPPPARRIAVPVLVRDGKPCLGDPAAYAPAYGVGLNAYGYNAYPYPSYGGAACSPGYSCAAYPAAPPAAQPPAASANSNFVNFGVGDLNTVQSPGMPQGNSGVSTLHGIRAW

Biological target: full length Art27/GST fusion protein (human) (UniProt Q9UBK9)
Assay: pull-down; GST fusion or GST immobilised on glutathione sepharose beads, incubated with in vitro translated 35S-labelled protein; 150 mM NaCl, 20 mM Tris-HCl, 0.1% NP-40, 2.5 mg/ml BSA, 10 nM ZnSO4; SDS-PAGE and phosphorimaging; only the target purified

| binding | Substance |
| --- | --- |
| binds | In vitro translated and 35S radiolabeled GATA-1 (from UniProt P15976 1-413) |
| binds | In vitro translated and 35S radiolabeled GATA-6 (from UniProt Q92908 1-595) |
| binds | In vitro translated and 35S radiolabeled Nkx2.5 (from UniProt P42582 1-318) |
